Source: article PMC7948739 (The Journal of Biological Chemistry, 2020)
These are yes or no findings as the source states them, for the method shown. Some binding calls cover weakened binding; strength is not graded here.

Chains of the proteins cited; added tags and fusions are not shown. Lines headed by an entry give the natural chain unless they say otherwise; changes in a name come on top. Residues count along the entry.
UniProt O60449, residues 28-1664: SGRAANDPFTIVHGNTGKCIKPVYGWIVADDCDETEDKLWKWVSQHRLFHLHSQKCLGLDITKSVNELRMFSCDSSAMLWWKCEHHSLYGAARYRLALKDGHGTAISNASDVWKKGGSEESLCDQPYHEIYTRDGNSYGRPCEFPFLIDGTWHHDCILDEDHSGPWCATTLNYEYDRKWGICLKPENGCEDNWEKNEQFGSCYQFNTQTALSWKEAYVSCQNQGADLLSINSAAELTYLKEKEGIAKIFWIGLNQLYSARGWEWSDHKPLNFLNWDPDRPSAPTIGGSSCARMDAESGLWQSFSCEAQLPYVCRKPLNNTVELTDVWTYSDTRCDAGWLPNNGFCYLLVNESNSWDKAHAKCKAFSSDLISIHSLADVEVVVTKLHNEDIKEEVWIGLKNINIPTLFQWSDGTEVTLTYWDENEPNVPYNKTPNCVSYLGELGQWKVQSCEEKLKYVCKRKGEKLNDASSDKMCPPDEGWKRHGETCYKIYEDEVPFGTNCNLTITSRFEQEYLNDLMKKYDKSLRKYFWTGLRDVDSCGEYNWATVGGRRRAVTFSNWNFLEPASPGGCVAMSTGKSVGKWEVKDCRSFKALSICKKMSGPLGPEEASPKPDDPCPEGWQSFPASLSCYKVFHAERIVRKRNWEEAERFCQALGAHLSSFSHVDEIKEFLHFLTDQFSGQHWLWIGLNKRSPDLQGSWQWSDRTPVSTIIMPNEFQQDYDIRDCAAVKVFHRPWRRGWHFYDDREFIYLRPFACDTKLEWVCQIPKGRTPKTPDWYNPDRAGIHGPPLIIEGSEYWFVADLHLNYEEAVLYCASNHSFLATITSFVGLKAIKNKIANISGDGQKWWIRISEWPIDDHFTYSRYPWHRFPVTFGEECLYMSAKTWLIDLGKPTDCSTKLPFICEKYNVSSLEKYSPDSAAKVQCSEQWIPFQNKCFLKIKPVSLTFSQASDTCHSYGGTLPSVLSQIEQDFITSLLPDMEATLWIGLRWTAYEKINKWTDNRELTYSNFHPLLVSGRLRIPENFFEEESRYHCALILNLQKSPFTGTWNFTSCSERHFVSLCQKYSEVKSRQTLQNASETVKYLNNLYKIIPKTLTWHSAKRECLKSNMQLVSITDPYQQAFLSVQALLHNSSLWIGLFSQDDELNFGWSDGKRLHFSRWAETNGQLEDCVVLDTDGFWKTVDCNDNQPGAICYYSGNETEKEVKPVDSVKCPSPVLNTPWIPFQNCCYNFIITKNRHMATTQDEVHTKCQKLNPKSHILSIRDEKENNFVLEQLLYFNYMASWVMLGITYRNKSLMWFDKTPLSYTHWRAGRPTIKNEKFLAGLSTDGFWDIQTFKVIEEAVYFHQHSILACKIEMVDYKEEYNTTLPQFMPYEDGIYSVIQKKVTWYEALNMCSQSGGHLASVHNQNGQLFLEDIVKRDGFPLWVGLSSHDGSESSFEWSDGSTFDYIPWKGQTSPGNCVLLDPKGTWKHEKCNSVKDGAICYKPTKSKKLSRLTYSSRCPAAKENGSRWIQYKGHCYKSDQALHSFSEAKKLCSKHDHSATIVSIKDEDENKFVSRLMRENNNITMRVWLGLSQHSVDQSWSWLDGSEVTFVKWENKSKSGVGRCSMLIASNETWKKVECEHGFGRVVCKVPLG

What was measured:
[1] = molecular target: soluble DEC-205 ectodomain (ECD), residues 1-1664 (human) (UniProt O60449); assay: AUC; sedimentation velocity, DEC-205 ECD at pH 7.4; both purified
[2] = molecular target: soluble DEC-205 ectodomain (ECD), residues 1-1664 (human) (UniProt O60449); assay: AUC; sedimentation velocity, DEC-205 ECD at pH 7.7, with CpG oligonucleotide added; both purified
[3] = molecular target: soluble DEC-205 ectodomain (ECD), residues 1-1664 (human) (UniProt O60449); assay: AUC; sedimentation velocity, DEC-205 ECD 0.2 mg ml^-1, BIS-TRIS buffer pH 6.0, 150 mM NaCl, 20 °C, 37,000 RPM; both purified
[4] = molecular target: soluble DEC-205 ectodomain (ECD), residues 1-1664 (human) (UniProt O60449); assay: SEC-MALS; DEC-205 ECD, 50 ul at 1 mg ml^-1, Superdex 200 5/150, BIS-TRIS buffer (10 mM BIS-TRIS pH 6.0, 150 mM NaCl); both purified

“soluble DEC-205 ectodomain (ECD), residues 1-1664 (from UniProt O60449-1 28-1664) (domain or fragment)” was tested, and the binding [1] was “binds weakly”, the binding [2] was “no binding (condition: at pH 7.7 upon the addition of CpG)” and the binding [3] was “no binding (condition: at pH 6.0 (0.2 mg ml^-1))”. For the same substance, the binding [4] was “no binding (condition: at pH 6.0 (1 mg ml^-1 loaded))”.
